This list holds what a sample rich in targets with a hit left over. Single values of this set are uncertain. This is a selection; strong and weak results do not stand in their true shares.

Sequences of proteins named here, by UniProt entry; tags and fusion partners are left off. A change or cut given only in a name is not applied to a line headed by its entry.
UniProt Q9NU22: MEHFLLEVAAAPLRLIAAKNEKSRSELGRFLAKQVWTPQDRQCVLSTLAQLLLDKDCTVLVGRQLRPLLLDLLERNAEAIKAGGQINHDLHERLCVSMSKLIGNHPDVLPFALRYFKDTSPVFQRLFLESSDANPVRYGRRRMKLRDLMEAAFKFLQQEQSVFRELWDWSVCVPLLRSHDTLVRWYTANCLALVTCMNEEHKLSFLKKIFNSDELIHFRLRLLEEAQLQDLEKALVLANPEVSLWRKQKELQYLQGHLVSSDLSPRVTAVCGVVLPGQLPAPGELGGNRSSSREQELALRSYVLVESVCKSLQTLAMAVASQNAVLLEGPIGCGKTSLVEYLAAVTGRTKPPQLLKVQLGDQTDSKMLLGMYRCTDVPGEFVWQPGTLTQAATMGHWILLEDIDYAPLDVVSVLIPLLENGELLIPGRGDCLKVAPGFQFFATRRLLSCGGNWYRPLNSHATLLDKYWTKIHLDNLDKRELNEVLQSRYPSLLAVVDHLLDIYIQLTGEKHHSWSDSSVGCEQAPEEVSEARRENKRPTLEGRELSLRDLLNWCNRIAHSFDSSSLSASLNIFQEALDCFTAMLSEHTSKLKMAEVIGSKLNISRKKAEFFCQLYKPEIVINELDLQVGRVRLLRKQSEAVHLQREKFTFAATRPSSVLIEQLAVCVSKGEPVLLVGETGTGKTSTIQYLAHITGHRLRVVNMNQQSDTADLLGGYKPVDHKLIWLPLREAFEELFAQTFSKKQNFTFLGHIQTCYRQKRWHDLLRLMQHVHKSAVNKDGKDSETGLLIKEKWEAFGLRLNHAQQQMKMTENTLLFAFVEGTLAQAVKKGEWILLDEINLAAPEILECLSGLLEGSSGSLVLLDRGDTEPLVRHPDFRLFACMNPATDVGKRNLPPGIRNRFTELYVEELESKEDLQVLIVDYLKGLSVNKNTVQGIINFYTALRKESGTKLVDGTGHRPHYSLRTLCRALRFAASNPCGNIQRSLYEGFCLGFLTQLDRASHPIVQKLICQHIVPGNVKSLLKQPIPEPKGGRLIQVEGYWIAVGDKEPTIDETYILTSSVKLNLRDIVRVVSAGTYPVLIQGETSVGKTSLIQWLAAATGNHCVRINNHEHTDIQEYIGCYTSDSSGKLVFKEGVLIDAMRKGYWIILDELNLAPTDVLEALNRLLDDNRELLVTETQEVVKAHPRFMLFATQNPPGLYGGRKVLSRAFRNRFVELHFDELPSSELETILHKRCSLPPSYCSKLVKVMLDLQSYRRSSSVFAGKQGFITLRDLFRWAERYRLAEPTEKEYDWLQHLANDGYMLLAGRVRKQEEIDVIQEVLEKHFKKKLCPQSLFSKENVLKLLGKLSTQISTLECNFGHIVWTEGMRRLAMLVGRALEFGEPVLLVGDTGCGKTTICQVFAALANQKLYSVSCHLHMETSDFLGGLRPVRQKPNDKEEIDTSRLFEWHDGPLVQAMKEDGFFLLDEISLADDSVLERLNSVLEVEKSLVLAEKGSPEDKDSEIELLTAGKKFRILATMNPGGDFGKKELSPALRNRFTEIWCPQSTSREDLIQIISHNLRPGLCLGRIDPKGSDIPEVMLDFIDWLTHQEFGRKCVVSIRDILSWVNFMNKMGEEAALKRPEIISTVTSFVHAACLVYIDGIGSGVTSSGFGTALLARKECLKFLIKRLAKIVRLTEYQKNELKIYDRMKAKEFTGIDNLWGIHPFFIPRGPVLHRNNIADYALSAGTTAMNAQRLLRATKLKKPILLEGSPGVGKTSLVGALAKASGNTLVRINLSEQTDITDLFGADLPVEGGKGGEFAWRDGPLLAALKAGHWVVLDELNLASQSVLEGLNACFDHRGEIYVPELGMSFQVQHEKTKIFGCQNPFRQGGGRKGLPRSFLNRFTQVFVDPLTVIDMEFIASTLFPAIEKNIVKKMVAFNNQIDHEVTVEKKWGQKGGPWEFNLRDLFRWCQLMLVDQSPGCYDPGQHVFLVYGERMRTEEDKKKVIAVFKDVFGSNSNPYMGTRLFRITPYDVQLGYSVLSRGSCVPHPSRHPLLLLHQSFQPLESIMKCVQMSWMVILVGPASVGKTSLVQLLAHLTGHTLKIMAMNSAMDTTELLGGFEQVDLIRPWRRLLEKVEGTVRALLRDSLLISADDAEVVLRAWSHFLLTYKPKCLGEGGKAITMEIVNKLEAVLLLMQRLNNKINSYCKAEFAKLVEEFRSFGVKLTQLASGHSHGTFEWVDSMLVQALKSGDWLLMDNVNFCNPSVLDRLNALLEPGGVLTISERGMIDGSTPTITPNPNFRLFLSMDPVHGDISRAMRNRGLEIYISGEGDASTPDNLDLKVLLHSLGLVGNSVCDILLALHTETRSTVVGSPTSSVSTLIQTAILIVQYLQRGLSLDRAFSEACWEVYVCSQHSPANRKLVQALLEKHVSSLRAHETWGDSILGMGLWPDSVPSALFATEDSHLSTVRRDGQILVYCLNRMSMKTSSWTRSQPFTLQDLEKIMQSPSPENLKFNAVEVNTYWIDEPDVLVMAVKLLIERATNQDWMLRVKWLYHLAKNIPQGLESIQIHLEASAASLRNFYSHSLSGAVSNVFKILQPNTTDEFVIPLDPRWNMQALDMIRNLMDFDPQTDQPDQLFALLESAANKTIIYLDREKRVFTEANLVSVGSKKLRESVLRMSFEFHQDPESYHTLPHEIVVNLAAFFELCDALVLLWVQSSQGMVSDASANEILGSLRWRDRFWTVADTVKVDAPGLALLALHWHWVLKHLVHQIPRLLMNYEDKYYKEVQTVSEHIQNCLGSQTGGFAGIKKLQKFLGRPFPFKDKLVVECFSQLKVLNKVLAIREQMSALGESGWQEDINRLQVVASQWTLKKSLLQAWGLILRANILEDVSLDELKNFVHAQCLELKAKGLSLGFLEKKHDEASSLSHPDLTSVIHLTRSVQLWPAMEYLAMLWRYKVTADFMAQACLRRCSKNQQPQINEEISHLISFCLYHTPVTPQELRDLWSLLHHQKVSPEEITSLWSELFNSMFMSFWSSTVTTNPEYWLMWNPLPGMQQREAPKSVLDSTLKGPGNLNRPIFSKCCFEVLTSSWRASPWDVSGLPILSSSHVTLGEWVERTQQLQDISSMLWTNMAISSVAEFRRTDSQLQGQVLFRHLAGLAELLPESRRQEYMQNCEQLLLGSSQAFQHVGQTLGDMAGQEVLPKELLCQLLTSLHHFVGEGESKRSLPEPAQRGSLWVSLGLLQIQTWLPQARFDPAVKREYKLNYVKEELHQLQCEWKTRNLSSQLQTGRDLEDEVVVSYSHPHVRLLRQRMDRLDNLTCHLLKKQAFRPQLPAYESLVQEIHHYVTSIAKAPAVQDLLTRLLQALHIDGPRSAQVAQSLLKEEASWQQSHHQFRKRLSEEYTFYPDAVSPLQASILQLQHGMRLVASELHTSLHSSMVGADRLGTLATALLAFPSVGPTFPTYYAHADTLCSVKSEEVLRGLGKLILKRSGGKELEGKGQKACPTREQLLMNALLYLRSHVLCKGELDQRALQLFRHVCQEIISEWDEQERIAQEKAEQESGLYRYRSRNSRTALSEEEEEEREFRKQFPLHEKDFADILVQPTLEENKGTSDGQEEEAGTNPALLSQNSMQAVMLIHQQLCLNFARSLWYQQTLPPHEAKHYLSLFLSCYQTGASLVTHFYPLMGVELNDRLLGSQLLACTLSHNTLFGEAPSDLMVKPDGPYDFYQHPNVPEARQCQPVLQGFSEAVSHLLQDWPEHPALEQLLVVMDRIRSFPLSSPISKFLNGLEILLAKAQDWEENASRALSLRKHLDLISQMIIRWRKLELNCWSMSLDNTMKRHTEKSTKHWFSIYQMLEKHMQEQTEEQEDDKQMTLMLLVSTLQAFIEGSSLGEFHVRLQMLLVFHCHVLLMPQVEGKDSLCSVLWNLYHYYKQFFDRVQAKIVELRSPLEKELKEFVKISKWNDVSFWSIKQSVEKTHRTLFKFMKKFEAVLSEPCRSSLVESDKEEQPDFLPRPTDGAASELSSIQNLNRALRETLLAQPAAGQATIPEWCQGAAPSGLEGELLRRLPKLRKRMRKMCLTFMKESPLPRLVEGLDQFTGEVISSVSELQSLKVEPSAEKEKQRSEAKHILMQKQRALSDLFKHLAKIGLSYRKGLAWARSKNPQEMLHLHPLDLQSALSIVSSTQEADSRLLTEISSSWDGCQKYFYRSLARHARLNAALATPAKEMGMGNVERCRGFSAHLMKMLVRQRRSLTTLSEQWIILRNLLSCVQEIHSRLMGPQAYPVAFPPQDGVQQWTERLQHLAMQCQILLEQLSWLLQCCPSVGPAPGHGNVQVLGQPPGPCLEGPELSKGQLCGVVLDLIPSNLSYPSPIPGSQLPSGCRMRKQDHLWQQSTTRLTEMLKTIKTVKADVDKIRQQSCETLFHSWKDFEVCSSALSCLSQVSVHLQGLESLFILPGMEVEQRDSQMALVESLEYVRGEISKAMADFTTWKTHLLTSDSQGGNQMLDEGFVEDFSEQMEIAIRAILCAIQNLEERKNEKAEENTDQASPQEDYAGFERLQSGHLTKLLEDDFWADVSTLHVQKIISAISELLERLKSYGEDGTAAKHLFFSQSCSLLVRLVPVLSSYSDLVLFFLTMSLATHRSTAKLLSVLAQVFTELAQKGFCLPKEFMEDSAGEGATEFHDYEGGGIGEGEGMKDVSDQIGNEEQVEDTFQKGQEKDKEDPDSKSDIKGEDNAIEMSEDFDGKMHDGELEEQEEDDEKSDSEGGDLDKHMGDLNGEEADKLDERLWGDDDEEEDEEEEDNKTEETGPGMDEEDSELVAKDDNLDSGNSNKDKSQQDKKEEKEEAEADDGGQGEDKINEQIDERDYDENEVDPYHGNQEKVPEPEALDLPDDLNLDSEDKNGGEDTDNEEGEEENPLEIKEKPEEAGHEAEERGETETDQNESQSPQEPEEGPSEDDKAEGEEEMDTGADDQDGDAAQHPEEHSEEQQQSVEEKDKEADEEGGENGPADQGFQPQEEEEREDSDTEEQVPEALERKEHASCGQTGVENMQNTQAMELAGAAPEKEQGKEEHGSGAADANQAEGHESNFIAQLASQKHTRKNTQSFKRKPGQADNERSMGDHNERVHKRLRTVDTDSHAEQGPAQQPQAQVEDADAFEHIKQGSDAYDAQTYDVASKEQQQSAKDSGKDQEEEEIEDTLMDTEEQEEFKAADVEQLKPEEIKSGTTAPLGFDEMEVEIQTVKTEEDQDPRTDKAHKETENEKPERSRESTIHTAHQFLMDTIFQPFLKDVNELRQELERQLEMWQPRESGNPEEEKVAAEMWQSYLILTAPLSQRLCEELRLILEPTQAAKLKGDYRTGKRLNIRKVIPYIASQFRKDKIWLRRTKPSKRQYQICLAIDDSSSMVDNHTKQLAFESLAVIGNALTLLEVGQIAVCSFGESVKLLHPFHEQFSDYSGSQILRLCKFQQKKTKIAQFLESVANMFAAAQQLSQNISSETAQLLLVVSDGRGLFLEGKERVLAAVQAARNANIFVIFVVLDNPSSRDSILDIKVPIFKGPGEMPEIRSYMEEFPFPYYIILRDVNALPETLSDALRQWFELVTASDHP
UniProt Q9NQ29: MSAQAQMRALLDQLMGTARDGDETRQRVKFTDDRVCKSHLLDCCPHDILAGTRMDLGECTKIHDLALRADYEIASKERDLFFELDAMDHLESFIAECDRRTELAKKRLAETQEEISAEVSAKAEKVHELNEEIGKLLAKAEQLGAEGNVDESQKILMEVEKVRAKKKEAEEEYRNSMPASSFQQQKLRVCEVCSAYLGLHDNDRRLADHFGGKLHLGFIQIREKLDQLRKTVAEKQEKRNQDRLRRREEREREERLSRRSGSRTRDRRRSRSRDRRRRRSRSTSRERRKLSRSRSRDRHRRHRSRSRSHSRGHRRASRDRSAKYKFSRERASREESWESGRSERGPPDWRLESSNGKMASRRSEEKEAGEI
UniProt Q9H3H3: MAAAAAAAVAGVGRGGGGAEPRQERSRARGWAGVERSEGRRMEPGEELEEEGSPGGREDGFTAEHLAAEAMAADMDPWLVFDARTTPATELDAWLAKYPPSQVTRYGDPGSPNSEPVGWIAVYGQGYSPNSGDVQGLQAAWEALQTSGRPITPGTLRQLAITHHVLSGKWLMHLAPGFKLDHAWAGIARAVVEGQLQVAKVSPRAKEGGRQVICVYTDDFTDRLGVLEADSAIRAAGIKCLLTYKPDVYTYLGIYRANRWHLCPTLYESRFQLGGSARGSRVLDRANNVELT
UniProt Q9HAV7: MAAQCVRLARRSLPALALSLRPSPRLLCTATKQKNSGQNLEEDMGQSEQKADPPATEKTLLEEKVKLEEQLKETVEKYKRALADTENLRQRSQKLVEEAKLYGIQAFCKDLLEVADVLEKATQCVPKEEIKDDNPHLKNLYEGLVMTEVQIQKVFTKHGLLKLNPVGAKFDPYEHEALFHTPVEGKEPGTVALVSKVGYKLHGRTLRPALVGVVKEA

Compound in the assay: COC(=O)/C=C/c1ccccc1 [methyl cinnamate]
As to the kind of experiment: log2 ratio of iodoacetamide-alkyne labeling of the cysteine site, DMSO over compound (competition); higher = stronger covalent engagement of the cysteine by the compound, active = 1 or more. Conditions: 500 µM; treatment time 1 h; system: HEK293T cell lysate. In outline: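 For each cysteine, the log2 competition ratio is mean control-channel reporter intensity over mean compound-channel reporter intensity. HEK293T lysate (2 mg/mL) was exposed to vehicle or electrophile (500 µM, 1 h, ambient temperature), labelled with iodoacetamide alkyne (1 h), clicked to sCIP-TMT reagents, digested overnight with trypsin at 37 °C, streptavidin-enriched and analysed by Orbitrap Eclipse LC-MS/MS with FAIMS and FragPipe. Cysteines quantified in only one of three replicates, each with duplicate channels, were excluded.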
Take MDN1 C3492 (UniProt Q9NU22): the “log2 ratio of iodoacetamide-alkyne labeling” value (shortened to “log2 ratio”) was inactive: 0.108.
The same measure for LUC7L C43 (UniProt Q9NQ29): inactive: 0.176; for RANBP3 C203 (UniProt Q9H6Z4): inactive: 0.413; for DIAPH3 C868 (UniProt Q9NSV4): inactive: 0.157.
The value for UNC45A C420 (UniProt Q9H3U1) was inactive: 0.208; that for NIT2 C153 (UniProt Q9NQR4) was inactive: -0.025.
The same measure for YTHDC2 C1265 (UniProt Q9H6S0): inactive: 0.603.
For BCAS3 C16 (UniProt Q9H6U6), the “log2 ratio” value is inactive: -0.456.
The value for SMYD3 C421 (UniProt Q9H7B4) was inactive: 0.102; that for GPHN C293 (UniProt Q9NQX3) was inactive: 0.483.
The same measure for FARSB C362 (UniProt Q9NSD9): inactive: 0.081; for KLC4 C53 (UniProt Q9NSK0): inactive: 0.0102.
The value for NIT2 C146 (UniProt Q9NQR4) was inactive: 0.332; that for HEATR1 C631 (UniProt Q9H583) was inactive: -0.14.
For MDN1 C579 (UniProt Q9NU22), the “log2 ratio” value was inactive: -0.167.
The same measure for DDX21 C161 (UniProt Q9NR30): inactive: 0.154; for UniProt Q9H773_C162: inactive: 0.0811; for AAAS C279 (UniProt Q9NRG9): inactive: 0.698.
The same measure for UniProt Q9H993_C398: inactive: -0.012.
As to BAZ1A C898 (UniProt Q9NRL2), the “log2 ratio” value is inactive: 0.37.
The same measure for GPHN C419 (UniProt Q9NQX3): inactive: 0.0575; for ANLN C71 (UniProt Q9NQW6): inactive: 0.293.
With FARSB C76 (UniProt Q9NSD9), the “log2 ratio” value was inactive: 7.1e-06.
Consider ISYNA1 C380 (UniProt Q9NPH2), for which the “log2 ratio” value is inactive: 0.0449.
As to SMC4 C110 (UniProt Q9NTJ3), the “log2 ratio” value is inactive: 0.0647.
Regarding ZDBF2 C628 (UniProt Q9HCK1), the “log2 ratio” value was inactive: 0.262.
The same measure for CHD8 C2378 (UniProt Q9HCK8): inactive: 0.138.
The same measure for C11orf68 C222 (UniProt Q9H3H3): inactive: -0.0937.
The value for FAM83D C15 (UniProt Q9H4H8) was inactive: 0.478; that for ATP13A1 C336 (UniProt Q9HD20) was inactive: 0.108; that for PPA2 C44 (UniProt Q9H2U2) was inactive: 0.0663.
For the target ATG3 C264 (UniProt Q9NT62), the “log2 ratio” value is inactive: 0.149.
With ACTR5 C48 (UniProt Q9H9F9), the “log2 ratio” value was inactive: 0.0257.
The value for GRPEL1 C108 (UniProt Q9HAV7) was inactive: -0.322; that for UniProt Q9H668_C8 was inactive: -0.0359.
Regarding WDR55 C306 (UniProt Q9H6Y2), the “log2 ratio” value is inactive: -0.0365.
The same measure for NANS C8 (UniProt Q9NR45): inactive: 0.106.

The values above are taken from the supplement of paper PMC11006884.
